The target in the test is Tumor protein p53 (human (endogenous in A549 and SPC-A1)) (UniProt P04637). In words: co-IP; A549 or SPC-A1 whole cell lysates, pre-cleared with Protein A/G PLUS-Agarose, immunoprecipitated with anti-p53 antibody (mock IgG as control), collected on Protein A/G PLUS-Agarose overnight at 4 °C, washed three times, western blot of endogenous proteins. A general note: Immunoblotting shows a protein as a band on a membrane.

Results are given in words; binding and its absence hold for the method and conditions named. Binding seen in cells or lysates may run through a third protein. Some results given as binding are weak or reduced against the parent protein; the word gives no strength.

B1: DDB1 and CUL4 associated factor 13 (protein, UniProt Q9NV06 1-445)
chain: MKVKMLSRNPDNYVRETKLDLQRVPRNYDPALHPFEVPREYIRALNATKLERVFAKPFLASLDGHRDGVNCLAKHPEKLATVLSGACDGEVRIWNLTQRNCIRTIQAHEGFVRGICTRFCGTSFFTVGDDKTVKQWKMDGPGYGDEEEPLHTILGKTVYTGIDHHWKEAVFATCGQQVDIWDEQRTNPICSMTWGFDSISSVKFNPIETFLLGSCASDRNIVLYDMRQATPLKKVILDMRTNTICWNPMEAFIFTAANEDYNLYTFDMRALDTPVMVHMDHVSAVLDVDYSPTGKEFVSASFDKSIRIFPVDKSRSREVYHTKRMQHVICVKWTSDSKYIMCGSDEMNIRLWKANASEKLGVLTSREKAAKDYNQKLKEKFQHYPHIKRIARHRHLPKSIYSQIQEQRIMKEARRRKEVNRIKHSKPGSVPLVSEKKKHVVAVVK
On to B1, for which the binding entry is given as “binds”.
